Measured values from the supplement of paper PMC10849652.
The list shows a part of the results.

By UniProt entry, the sequences of proteins in these tests, tags left out. Where a name states a change or a piece, a line headed by the entry shows the natural chain unless it says otherwise.
UniProt Q8N4P3, whole entry, looked up: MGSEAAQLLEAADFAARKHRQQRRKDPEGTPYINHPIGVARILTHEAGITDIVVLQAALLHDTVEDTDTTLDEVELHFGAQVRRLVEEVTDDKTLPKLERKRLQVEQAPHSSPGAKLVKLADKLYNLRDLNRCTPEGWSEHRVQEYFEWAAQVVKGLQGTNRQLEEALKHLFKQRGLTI
UniProt P36969, whole entry, looked up: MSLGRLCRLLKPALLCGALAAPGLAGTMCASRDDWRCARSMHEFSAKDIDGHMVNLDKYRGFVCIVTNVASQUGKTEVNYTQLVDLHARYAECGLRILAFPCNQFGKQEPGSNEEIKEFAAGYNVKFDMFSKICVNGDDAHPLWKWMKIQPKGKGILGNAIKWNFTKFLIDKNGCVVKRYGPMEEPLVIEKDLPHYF
UniProt Q03013: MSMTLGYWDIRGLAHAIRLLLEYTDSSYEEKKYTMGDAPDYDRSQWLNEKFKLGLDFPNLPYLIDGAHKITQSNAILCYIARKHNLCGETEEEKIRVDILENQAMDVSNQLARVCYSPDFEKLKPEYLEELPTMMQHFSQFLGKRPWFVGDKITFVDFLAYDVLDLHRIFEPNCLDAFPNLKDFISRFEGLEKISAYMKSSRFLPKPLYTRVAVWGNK
UniProt P10412, whole entry, looked up: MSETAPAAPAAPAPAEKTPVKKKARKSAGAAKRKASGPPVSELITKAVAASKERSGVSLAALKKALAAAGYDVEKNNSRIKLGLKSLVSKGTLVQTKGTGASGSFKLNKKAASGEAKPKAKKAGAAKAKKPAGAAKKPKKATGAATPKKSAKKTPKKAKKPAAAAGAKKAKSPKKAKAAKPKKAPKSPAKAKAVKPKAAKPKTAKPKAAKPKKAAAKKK
UniProt Q9HAV7: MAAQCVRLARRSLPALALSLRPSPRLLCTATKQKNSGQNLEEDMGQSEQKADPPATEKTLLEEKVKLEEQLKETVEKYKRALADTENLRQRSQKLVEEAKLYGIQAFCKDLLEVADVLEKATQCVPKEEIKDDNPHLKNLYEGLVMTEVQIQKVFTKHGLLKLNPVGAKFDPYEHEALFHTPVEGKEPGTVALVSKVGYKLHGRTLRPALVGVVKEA
UniProt Q8WUA4: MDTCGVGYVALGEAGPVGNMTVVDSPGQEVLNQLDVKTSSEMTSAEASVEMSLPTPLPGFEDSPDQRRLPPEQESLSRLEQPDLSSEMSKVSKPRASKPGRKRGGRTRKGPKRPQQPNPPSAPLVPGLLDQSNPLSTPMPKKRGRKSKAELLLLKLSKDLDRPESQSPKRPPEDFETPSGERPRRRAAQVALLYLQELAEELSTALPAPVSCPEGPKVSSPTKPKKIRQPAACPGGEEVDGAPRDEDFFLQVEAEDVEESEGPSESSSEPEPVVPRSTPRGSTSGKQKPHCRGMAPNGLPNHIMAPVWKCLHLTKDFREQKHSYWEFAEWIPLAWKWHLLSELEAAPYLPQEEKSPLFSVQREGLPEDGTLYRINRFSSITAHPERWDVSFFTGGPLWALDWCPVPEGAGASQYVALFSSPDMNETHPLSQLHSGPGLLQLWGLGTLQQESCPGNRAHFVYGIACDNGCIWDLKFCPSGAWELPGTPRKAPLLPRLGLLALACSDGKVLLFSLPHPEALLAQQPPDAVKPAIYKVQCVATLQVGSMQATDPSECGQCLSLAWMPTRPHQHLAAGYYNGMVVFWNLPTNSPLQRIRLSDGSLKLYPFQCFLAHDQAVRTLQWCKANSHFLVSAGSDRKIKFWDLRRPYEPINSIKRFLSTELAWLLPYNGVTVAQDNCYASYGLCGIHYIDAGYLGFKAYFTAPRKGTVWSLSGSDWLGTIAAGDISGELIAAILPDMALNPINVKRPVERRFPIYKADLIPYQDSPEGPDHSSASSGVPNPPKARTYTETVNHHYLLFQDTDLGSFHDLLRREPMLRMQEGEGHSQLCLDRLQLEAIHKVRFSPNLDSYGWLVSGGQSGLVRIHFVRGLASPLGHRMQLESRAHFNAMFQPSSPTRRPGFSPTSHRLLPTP
UniProt Q96NT3: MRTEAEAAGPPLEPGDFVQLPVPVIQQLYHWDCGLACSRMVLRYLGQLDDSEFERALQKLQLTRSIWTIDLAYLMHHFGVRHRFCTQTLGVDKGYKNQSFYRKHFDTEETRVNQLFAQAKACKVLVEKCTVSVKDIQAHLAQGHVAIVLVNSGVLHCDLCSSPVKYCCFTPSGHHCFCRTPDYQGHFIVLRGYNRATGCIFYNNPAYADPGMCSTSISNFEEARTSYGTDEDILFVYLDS
UniProt Q9Y5Z7: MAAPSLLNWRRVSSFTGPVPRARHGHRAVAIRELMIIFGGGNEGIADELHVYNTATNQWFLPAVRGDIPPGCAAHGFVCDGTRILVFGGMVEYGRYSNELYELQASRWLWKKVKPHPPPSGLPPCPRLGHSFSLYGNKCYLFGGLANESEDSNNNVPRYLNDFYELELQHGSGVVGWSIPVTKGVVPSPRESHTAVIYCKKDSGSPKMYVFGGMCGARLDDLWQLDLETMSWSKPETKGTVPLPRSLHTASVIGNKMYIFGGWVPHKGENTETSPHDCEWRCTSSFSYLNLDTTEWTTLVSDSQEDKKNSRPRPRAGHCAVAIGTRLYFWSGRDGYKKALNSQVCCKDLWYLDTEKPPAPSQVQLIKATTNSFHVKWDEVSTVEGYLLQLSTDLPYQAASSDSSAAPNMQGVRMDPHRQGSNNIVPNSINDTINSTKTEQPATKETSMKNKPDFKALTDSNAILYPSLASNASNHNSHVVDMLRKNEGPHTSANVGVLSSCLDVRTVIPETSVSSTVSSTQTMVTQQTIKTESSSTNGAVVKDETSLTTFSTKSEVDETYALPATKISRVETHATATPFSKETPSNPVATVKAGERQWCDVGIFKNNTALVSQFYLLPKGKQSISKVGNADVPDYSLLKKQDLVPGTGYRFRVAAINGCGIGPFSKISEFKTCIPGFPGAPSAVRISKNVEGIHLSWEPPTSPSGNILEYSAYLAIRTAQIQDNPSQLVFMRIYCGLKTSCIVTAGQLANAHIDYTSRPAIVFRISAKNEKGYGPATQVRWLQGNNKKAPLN
UniProt Q6Y1H2: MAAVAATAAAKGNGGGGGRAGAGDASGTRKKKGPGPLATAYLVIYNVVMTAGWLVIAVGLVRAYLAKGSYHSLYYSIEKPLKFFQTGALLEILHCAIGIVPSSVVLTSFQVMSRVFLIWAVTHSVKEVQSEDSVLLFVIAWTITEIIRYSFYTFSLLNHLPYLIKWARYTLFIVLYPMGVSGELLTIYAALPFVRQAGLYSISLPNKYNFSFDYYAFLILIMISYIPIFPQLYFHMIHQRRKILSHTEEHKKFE
UniProt Q4G148: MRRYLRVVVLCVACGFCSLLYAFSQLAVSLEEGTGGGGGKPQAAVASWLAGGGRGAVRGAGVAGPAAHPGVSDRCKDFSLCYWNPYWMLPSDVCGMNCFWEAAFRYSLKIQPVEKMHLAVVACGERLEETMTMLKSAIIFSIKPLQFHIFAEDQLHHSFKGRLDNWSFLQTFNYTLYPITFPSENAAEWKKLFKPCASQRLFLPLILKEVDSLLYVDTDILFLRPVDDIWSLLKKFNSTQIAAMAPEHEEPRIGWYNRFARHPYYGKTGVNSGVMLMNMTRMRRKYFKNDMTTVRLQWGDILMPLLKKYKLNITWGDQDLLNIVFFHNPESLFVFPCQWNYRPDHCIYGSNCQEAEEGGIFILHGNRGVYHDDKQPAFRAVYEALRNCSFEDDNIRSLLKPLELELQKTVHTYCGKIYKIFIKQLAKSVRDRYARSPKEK
UniProt P41594, whole entry, looked up: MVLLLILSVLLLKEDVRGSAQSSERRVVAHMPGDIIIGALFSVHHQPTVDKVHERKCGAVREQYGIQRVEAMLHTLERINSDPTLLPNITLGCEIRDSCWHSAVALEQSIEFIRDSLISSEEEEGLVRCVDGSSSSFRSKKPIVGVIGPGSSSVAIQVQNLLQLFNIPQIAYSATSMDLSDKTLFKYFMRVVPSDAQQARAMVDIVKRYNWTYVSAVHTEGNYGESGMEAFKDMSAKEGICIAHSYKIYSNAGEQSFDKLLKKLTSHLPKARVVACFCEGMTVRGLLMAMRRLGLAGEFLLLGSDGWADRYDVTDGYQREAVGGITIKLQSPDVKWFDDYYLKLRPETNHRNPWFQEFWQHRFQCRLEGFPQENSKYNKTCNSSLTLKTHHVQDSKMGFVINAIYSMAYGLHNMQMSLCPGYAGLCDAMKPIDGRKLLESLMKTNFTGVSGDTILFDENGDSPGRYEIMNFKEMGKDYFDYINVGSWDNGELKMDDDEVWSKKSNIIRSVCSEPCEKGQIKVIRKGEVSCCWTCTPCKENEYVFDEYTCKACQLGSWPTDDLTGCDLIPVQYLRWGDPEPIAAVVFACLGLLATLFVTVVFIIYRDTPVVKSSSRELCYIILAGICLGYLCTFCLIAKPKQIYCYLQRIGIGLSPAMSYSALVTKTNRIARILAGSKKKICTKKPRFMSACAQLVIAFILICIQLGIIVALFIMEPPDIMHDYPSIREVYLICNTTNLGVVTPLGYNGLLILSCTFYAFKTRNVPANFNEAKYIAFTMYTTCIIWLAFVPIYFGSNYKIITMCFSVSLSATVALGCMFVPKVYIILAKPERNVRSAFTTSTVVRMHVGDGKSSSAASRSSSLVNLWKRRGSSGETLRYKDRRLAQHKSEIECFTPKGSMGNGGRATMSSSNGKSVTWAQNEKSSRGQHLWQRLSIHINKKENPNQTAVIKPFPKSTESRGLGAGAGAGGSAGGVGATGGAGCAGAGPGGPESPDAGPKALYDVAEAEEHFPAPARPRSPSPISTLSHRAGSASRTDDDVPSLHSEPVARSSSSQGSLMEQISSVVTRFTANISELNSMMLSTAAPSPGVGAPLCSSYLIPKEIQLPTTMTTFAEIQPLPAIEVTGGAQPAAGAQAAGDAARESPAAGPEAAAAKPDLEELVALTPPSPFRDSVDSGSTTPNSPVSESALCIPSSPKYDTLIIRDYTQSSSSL
UniProt P35269, whole entry, looked up: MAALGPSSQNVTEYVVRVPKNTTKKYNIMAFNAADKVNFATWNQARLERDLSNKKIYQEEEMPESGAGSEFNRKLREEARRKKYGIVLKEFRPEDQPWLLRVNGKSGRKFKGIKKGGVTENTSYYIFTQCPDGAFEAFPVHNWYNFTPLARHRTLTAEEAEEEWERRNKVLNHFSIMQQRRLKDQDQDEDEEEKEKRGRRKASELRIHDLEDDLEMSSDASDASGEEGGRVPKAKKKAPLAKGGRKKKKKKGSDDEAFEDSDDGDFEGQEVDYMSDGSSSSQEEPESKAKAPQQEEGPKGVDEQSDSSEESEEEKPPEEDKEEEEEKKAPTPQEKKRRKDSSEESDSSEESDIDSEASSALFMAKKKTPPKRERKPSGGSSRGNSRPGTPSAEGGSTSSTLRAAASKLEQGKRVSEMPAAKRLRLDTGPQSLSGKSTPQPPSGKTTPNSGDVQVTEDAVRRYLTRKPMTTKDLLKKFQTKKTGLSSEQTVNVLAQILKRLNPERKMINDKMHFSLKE
UniProt Q9P035: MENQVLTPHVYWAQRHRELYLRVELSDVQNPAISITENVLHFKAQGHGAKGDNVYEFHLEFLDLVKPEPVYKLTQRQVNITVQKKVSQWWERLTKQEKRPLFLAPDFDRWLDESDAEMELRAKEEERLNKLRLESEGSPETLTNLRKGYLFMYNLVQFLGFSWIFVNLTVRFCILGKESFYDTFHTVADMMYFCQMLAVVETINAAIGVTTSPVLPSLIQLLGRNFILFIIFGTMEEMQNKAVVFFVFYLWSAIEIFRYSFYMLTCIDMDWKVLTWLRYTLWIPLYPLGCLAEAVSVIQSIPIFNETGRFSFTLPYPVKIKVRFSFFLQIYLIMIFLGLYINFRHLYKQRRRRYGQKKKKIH
UniProt P28799: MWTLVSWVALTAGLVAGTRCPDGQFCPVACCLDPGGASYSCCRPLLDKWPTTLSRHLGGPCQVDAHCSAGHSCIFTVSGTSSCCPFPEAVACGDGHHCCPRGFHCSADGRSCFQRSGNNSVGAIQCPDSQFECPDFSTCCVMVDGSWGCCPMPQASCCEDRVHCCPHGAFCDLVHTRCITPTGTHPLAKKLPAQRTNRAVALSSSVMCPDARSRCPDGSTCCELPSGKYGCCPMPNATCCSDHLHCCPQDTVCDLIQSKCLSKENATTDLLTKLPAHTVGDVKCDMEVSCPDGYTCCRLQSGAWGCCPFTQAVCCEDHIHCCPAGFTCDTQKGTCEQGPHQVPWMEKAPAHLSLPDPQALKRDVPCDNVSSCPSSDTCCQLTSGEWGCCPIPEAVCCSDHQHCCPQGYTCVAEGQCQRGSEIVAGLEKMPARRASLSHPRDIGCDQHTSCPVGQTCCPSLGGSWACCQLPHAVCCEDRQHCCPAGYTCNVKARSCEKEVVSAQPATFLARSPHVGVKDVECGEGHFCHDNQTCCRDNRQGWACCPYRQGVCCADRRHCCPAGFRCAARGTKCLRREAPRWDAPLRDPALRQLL
UniProt Q9Y3E1: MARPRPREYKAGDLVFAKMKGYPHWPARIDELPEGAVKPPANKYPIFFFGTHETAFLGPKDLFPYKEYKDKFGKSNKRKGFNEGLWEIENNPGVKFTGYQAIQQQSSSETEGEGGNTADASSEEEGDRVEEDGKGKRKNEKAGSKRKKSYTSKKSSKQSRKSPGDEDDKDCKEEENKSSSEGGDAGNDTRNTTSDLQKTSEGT

How the values were obtained:
Assay in all cases: log2 fold change, soluble protein after heating vs DMSO (PISA); higher = thermal stabilisation; K562 lysate, 10 uM; active = over 0.2 and 3.5 SD of the protein, either way, in both replicates (recomputed)
[1] = compound: NCC(=O)Nc1ccc(-n2nc(C(F)(F)F)cc2-c2ccc3c(ccc4ccccc43)c2)cc1
In short: (§1)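 To prepare the extract, K562 pellets were dounce-homogenised in PBS pH 7.4 with 1 mM MgCl2, giving crude material at 1 mg/mL protein. This was treated with 10 μM compound for 30 min, then heated in aliquots for 3 min over 48°C-58°C before pooling and addition of NP-40 to 0.5% at 4°C. Centrifugation at 21,000xg for 90 min left soluble protein in the supernatant, which TMTpro 16plex LC-MS/MS quantified with equalised channel sums. Results are log-two fold changes in thermal stability compared with solvent controls, from duplicates.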

vorinostat = compound: O=C(CCCCCCC(=O)Nc1ccccc1)NO [vorinostat]
In short: as §1

silmitasertib = compound: O=C(O)c1ccc2c(c1)nc(Nc1cccc(Cl)c1)c1ccncc12 [silmitasertib]
In short: as §1

[2] = compound: O=C1NC(=O)C(c2cnc3ccccn23)=C1c1cn2c3c(cc(F)cc13)CN(C(=O)N1CCCCC1)CC2
In short: as §1

entospletinib = compound: c1cn2cc(-c3ccc4cn[nH]c4c3)nc(Nc3ccc(N4CCOCC4)cc3)c2n1 [entospletinib]
In short: as §1

Target	log2 fold change [1]	log2 fold change (vorinostat)	log2 fold change (silmitasertib)	log2 fold change [2]	log2 fold change (entospletinib)
GTF2I (UniProt P78347)	inactive: -0.001	active: -0.287	inactive: 0.091	inactive: -0.005	inactive: -0.017
HDHD3 (UniProt Q9BSH5)	inactive: -0.09	inactive: -0.002	inactive: 0.035	inactive: -0.016	inactive: -0.012
HAGHL isoform 2 (UniProt Q6PII5)	inactive: -0.006	inactive: 0.071	inactive: 0.031	inactive: -0.019	inactive: -0.006
HAUS2 (UniProt Q9NVX0)	inactive: -0.052	active: -0.514	inactive: -0.037	inactive: 0.039	inactive: -0.029
GRB10 (UniProt Q13322)	inactive: -0.001	active: -0.402	inactive: 0.065	inactive: 0.008	inactive: 0.007
HDAC7 isoform 5 (UniProt Q8WUI4)	inactive: -0.007	inactive: -0.016	inactive: -0.059	inactive: 0	inactive: 0.022
HDDC3 (UniProt Q8N4P3)	inactive: 0.057	inactive: 0.086	inactive: 0.026	inactive: -0.085	inactive: -0.03
GTF3C1 (UniProt Q12789)	inactive: 0.029	inactive: -0.191	inactive: 0.035	inactive: -0.004	inactive: -0.005
GPX4 (UniProt P36969)	inactive: -0.007	active: -0.306	inactive: 0.017	inactive: -0.023	inactive: 0.037
GUK1 isoform 2 (UniProt Q16774)	inactive: 0.011	inactive: -0.105	inactive: 0	inactive: 0	inactive: 0.039
GSTM4 (UniProt Q03013)	inactive: 0.025	inactive: 0.015	active: 0.301	inactive: 0.012	inactive: -0.03
HDHD2 (UniProt Q9H0R4)	inactive: -0.054	inactive: 0.099	inactive: -0.007	inactive: -0.003	inactive: -0.007
H1-4 (UniProt P10412)	inactive: -0.014	inactive: 0.168	inactive: -0.005	inactive: 0.005	inactive: 0.009
GRPEL1 (UniProt Q9HAV7)	inactive: 0.01	inactive: 0.061	inactive: -0.02	inactive: 0.035	inactive: 0.007
HEATR5A (UniProt Q86XA9)	inactive: -0.071	inactive: -0.163	inactive: 0.036	inactive: 0.047	inactive: 0.018
HBD (UniProt P02042)	inactive: -0.01	inactive: 0.068	inactive: -0.057	inactive: 0.001	inactive: -0.072
GRIPAP1 isoform 2 (UniProt Q4V328)	–	–	–	inactive: 0.005	–
GYG2 (UniProt O15488)	inactive: -0.041	inactive: -0.079	inactive: -0.027	–	inactive: 0.003
HDAC2 (UniProt Q92769)	inactive: 0.001	–	inactive: -0.002	inactive: 0.057	inactive: -0.005

Reprinted at random: two records from the list, in no set order.
Target	log2 fold change [1]	log2 fold change (vorinostat)	log2 fold change (silmitasertib)	log2 fold change [2]	log2 fold change (entospletinib)
HDHD3 (UniProt Q9BSH5)	inactive: -0.09	inactive: -0.002	inactive: 0.035	inactive: -0.016	inactive: -0.012
GSTM4 (UniProt Q03013)	inactive: 0.025	inactive: 0.015	active: 0.301	inactive: 0.012	inactive: -0.03

Remaining list, next part.

Target	log2 fold change [1]	log2 fold change (vorinostat)	log2 fold change (silmitasertib)	log2 fold change [2]	log2 fold change (entospletinib)
GRK6 isoform 2 (UniProt P43250)	inactive: 0.001	inactive: -0.227	active: 0.48	inactive: -0.012	inactive: -0.123
H1-3 (UniProt P16402)	inactive: 0.027	inactive: 0.163	inactive: -0.017	inactive: 0.03	inactive: 0.005
GRAMD1A (UniProt Q96CP6)	–	inactive: -0.133	inactive: 0.024	inactive: 0.378	–
HBD (UniProt E9PEW8)	inactive: -0.12	–	–	inactive: -0.079	–
H4C1 (UniProt P62805)	inactive: 0.043	inactive: 0.09	inactive: 0.007	inactive: -0.038	inactive: -0.057
GTF3C2 (UniProt Q8WUA4)	inactive: 0.043	inactive: -0.169	inactive: 0.024	inactive: -0.008	inactive: -0.044
GUCD1 isoform 3 (UniProt Q96NT3)	–	inactive: 0.442	inactive: 0.121	inactive: -0.014	–
GSTM2 (UniProt P28161)	inactive: 0.017	active: 0.323	active: 0.378	–	inactive: 0.044
HEATR1 (UniProt Q9H583)	inactive: 0.052	inactive: -0.054	inactive: 0.025	inactive: 0.019	inactive: 0.02
HDAC1 (UniProt Q13547)	inactive: 0.018	active: 0.644	inactive: -0.008	inactive: -0.015	inactive: 0.008
HAL (UniProt P42357)	–	inactive: 0.26	inactive: -0.497	inactive: 0.408	inactive: -0.289
HCFC2 (UniProt Q9Y5Z7)	–	–	–	inactive: -0.329	–
GUF1 (UniProt Q8N442)	inactive: 0.237	inactive: -0.174	inactive: 0.008	inactive: 0.043	inactive: -0.006
HADH isoform 2 (UniProt Q16836)	inactive: 0	inactive: -0.029	inactive: 0.005	inactive: 0.006	inactive: 0.022
HACD2 (UniProt Q6Y1H2)	–	inactive: 0.027	inactive: 0.015	–	–
H1-0 (UniProt P07305)	–	–	–	inactive: 0.051	–
HAGH isoform 2 (UniProt Q16775)	–	inactive: 0.068	inactive: -0.004	inactive: 0.07	–
GXYLT1 (UniProt Q4G148)	inactive: -0.058	inactive: 0.058	inactive: -0.003	inactive: 0.031	inactive: 0.097
GTF3C5 isoform 3 (UniProt Q9Y5Q8)	inactive: 0.002	active: -0.296	inactive: 0.016	inactive: 0.04	inactive: -0.021

Target	log2 fold change [1]	log2 fold change (vorinostat)	log2 fold change (silmitasertib)	log2 fold change [2]	log2 fold change (entospletinib)
GYG1 isoform 2 (UniProt P46976)	inactive: -0.161	inactive: 0.093	inactive: 0.25	inactive: -0.094	inactive: 0.056
GTPBP6 (UniProt O43824)	inactive: 0.069	–	–	–	inactive: 0.255
GRM5 (UniProt P41594)	–	inactive: -0.143	inactive: 0.209	–	inactive: -0.096
GTF2F1 (UniProt P35269)	inactive: 0.023	inactive: 0.104	inactive: -0.005	inactive: 0.026	inactive: 0.01
GSK3A (UniProt P49840)	inactive: -0.019	inactive: 0.265	inactive: 0.382	inactive: 0.456	inactive: 0.014
GTF2H2C (UniProt Q6P1K8)	–	–	–	inactive: 0.148	inactive: -0.136
HBZ (UniProt P02008)	inactive: -0.127	inactive: 0.154	inactive: -0.014	inactive: 0.024	inactive: 0
HACD3 (UniProt Q9P035)	inactive: -0.006	inactive: 0.109	inactive: 0.003	inactive: -0.003	inactive: 0.01
H3-2 (UniProt Q5TEC6)	–	–	–	inactive: -0.079	inactive: -0.014
HACL1 (UniProt Q9UJ83)	inactive: 0.017	inactive: 0.084	inactive: -0.014	inactive: -0.014	inactive: -0.017
H6PD (UniProt O95479)	–	inactive: 0.102	inactive: -0.004	inactive: 0.239	inactive: -0.043
GRN (UniProt P28799)	–	inactive: 0.073	inactive: -0.036	inactive: 0.05	inactive: -0.029
GSDME (UniProt O60443)	–	inactive: -0.2	inactive: 0.062	inactive: -0.247	inactive: 0.069
GSDMD (UniProt P57764)	inactive: -0.078	–	–	inactive: -0.167	–
GPSM3 (UniProt Q9Y4H4)	–	inactive: 0.096	inactive: 0.014	inactive: -0.022	–
HDGFL3 (UniProt Q9Y3E1)	inactive: -0.015	inactive: 0.106	inactive: 0.004	inactive: -0.006	inactive: -0.002
GSTZ1 (UniProt G3V4T6)	inactive: 0.088	inactive: 0.167	inactive: -0.002	inactive: -0.015	inactive: -0.031
H2AFX (UniProt P16104)	inactive: -0.019	inactive: 0.126	inactive: 0.004	inactive: 0.005	inactive: -0.077
